Results on 54 compounds are retold here after PubChem BioAssay AID2685 (National Center for Advancing Translational Sciences (NCATS), 2010).

The test in a line: qHTS Assay for Lipid Storage Modulators in Drosophila S3 Cells.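 As to cell number change: cells counted by Cell Tracker Red CMTPX staining in the red channel.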 The note with it: BODIPY lipid droplet fluorescence, 18-24 h; for cell number change: measured here: cell count max response, cells fed with added oleic acid. An outline of the steps: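 Laser-scanning cytometry quantifies lipid droplet accumulation (500–530 nm total intensity; droplet/cell object ratio) in oleic acid-fed (400 uM added) Drosophila S3 cells treated with a concentration series. 20 uM Triacsin C defined 100% inhibition.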
(qHTS replaces the single test concentration by a dilution series.)

The mark [1] stands for this setting: measured here: cell number channel AC50, cells fed with added oleic acid.
The mark [2] stands for this setting: measured here: lipid fluorescence (Fed channel) AC50, cells fed with added oleic acid.

Each structure is given as a SMILES string. The list shows a part of the results. Further columns of the screen follow, without active or inactive calls. The list favours compounds with an active or inconclusive main result. Potencies come from curve fits of mixed quality, noted in brackets.

The AC50 is the midpoint of the concentration-response curve, whichever way the signal moves. Low readings indicate activity at low concentration, high ones activity only at high concentration. Consider `Cc1c(C)n(Cc2ccccc2)c2ncnc(NCCCN(C)C)c12`, for which the cell number change is -15.5%. Under setting [1], the AC50 was 0.92 µM [falling, full curve, poor fit].

Regarding `Cc1ccc(S(=O)(=O)N2CCCC2)cc1C(=O)NC1CCCCC1`, the cell number change is -22.1%. Moreover, the AC50 under setting [2] was 29.1 µM [falling, single point].

For the compound `CC(C)c1ccc(C(=O)NCCCc2ccccc2)cc1`, the AC50 under setting [1] is 6.51 µM [rising, single point].

`CC(C)c1ccc(S(=O)(=O)N2CCN(C(=O)c3cccc(F)c3)CC2)cc1`: under setting [2], the AC50 was 0.58 µM [falling, single point].

For `CCN(C(=O)COC(=O)c1ccc(S(=O)(=O)N2CCCc3ccccc32)cc1)C1CCS(=O)(=O)C1` (stereo not given), the cell number change was determined as 32.9%. Besides, the AC50 under setting [1] was 18.4 µM [rising, single point].

For `CNS(=O)(=O)c1cccc(C(=O)OCC(=O)Nc2ccccc2F)c1`, the cell number change worked out at 17.5%. For the same compound, under setting [1], the AC50 was 3.66 µM [rising, single point]. For the same compound, the AC50 under setting [2] is 6.51 µM [rising, single point].

For the compound `CCc1ccc(-n2c(=O)c3ccccc3n(CC(=O)C(C)(C)C)c2=O)cc1`, the cell number change stood at 12.9%. Moreover, under setting [1], the AC50 is 0.0731 µM [rising, full curve, poor fit]. Further, the AC50 under setting [2] is 6.51 µM [rising, single point].

For the compound `COc1ccc(C2CC(=O)C(C=NCCN3CCN(C(=S)Nc4ccccc4)CC3)=C(O)C2)cc1OC` (stereo not given), the cell number change was found to be 38.1%. Also, the concentration at half-maximal activity (AC50) under setting [1] was 29.1 µM [rising, single point]. Further, the AC50 under setting [2] is 29.1 µM [rising, single point].

As for `Cn1cccc1CC(=O)NNC(=O)Nc1ccccc1F`, the cell number change was -8.9%. Moreover, the AC50 under setting [2] is 0.00461 µM [falling, full curve, poor fit].

Take `Cc1cc(C)cc(OCC(=O)OCC(=O)NC2CCCC2)c1`: the cell number change is 21.6%. The AC50 under setting [2] was 0.92 µM [rising, full curve, poor fit].

With `CC(C)C(NC(=O)c1cccs1)c1nnc(SCC(=O)Nc2nccs2)n1C` (stereo not given), the AC50 is 0.092 µM [falling, full curve] under setting [1] and 0.651 µM [falling, full curve] under setting [2].

Regarding `C/C(=N\NS(=O)(=O)c1ccc(C)cc1)c1ccc(C)s1`, the cell number change is -28.5%. For the same compound, the AC50 under setting [2] was 16.4 µM [falling, partial curve, poor fit].

For `Cc1[nH][nH]c(=O)c1C(c1ccc(Cl)cc1)c1c(C)[nH][nH]c1=O`, the cell number change is -2.36%. In addition, under setting [2], the AC50 is 23.1 µM [rising, single point].

In the case of `COc1ccc(NC(=S)N2CCN(c3ccccc3)CC2)c(OC)c1`, the cell number change turned out to be 3.72%.

For `Cc1ccc(NC(=O)C2CC(=O)N(c3ccc4c(c3)OCCO4)C2)nc1` (stereo not given), the cell number change was 19.5%. Under setting [2], the AC50 was 0.092 µM [rising, full curve, poor fit].

For `CC1CCCCC1NC(=O)CN1C(=O)c2cccc(N)c2C1=O` (stereo not given), under setting [1], the AC50 was 0.82 µM [rising, single point].

On to `CCc1ccc(C(O)(CNCc2ccccc2)c2ccccc2)cc1` (stereo not given), for which the cell number change is -49.6%. For the same compound, the AC50 under setting [1] was 29.1 µM [falling, single point]. The AC50 under setting [2] was 1.84 µM [falling, partial curve].

For `COc1ccc(Cl)cc1NC(=O)CN(C)CC(=O)Nc1ccccc1N1CCOCC1`, the cell number change came out at 12.2%. Also, under setting [2], the AC50 was 0.0517 µM [rising, full curve, poor fit].

Take `O=C(COC(=O)c1ccc(F)cc1F)Nc1cccc(S(=O)(=O)N2CCOCC2)c1`: the cell number change came out at 2.5%.

On to `CCCC(CCC)C(=O)NNc1cc(=O)c2c(=O)n(C)c(=O)n(C)c2[nH]1`, for which the AC50 under setting [2] was 32.6 µM [falling, single point].

Turning to `CC1CCc2[nH]c3ccc(C(=O)N(C)CC(=O)Nc4ccccc4C(F)(F)F)cc3c2C1` (stereo not given), the cell number change amounted to 41.7%. For the same compound, under setting [1], the AC50 is 0.082 µM [rising, full curve, poor fit]. Further, the AC50 under setting [2] is 0.366 µM [rising, full curve, poor fit].

Turning to `Cc1nccn1CCCNC(=O)CC1C(=O)NCCN1Cc1ccccc1C(F)(F)F` (stereo not given), the cell number change was -9.15%. Further, the AC50 under setting [2] is 0.00517 µM [falling, full curve, poor fit].

Turning to `Cc1ccc(/C=[N+](/C)[O-])cc1`, the cell number change is -21%. In addition, the AC50 under setting [1] is 6.51 µM [falling, single point]. In addition, the AC50 under setting [2] was 6.51 µM [falling, partial curve].

With `CCOC(Cn1c(-c2ccc(OC)cc2)nc2ccccc21)OCC`, the cell number change stood at 98%. Besides, under setting [1], the AC50 was 18.4 µM [rising, single point]. In addition, under setting [2], the AC50 was 14.6 µM [rising, partial curve].

For the compound `O=C(Nc1cccc(OC(F)(F)F)c1)c1ccc(Br)o1`, the cell number change was -44.8%. Also, under setting [1], the AC50 was 14.6 µM [falling, partial curve]. Further, the AC50 under setting [2] was 20.6 µM [falling, partial curve].

As to `COC(=O)CNC(c1ccccc1)c1cc(Cl)ccc1NC(=O)c1cccc(Cl)c1` (stereo not given), the cell number change came out at 37.8%. Further, the AC50 under setting [1] is 16.4 µM [rising, single point].

With `CCOC(=O)C1CCN(C(=O)CSc2nc(N)cc(=O)[nH]2)CC1`, the cell number change is 38.2%. For the same compound, the AC50 under setting [1] was 13 µM [rising, partial curve, poor fit].

Take `Cc1ccc(-c2nnc3n2CCCCC3)cc1`: the cell number change was found to be 0.191%. Moreover, under setting [2], the AC50 was 0.164 µM [rising, full curve, poor fit].

For the compound `CCOC(=O)c1sc(C)nc1C1CCN(C(=O)OCC)CC1`, the cell number change came out at 88.8%. For the same compound, the AC50 under setting [1] is 5.8 µM [rising, partial curve]. The AC50 under setting [2] is 1.64 µM [rising, partial curve].

Regarding `CCC(C)C(NC(N)=O)C(=O)Nc1ccc(C)c(Cl)c1` (stereo not given), the cell number change was 0.157%. Under setting [2], the AC50 was 32.6 µM [falling, single point].

Take `Cc1cc(C)c(S(=O)(=O)/N=C2/C=C(Sc3ncn[nH]3)C(=O)c3ccccc32)cc1C`: the cell number change was -65.8%. Also, the AC50 under setting [1] is 25.9 µM [falling, single point]. The AC50 under setting [2] is 20.6 µM [falling, partial curve].

As to `CC1=CC(C)(C)Nc2ccc(OC(=O)c3ccco3)cc21`, the cell number change was -99.2%. For the same compound, the AC50 under setting [1] is 20.6 µM [falling, single point]. Further, the AC50 under setting [2] is 29.1 µM [falling, single point].

Take `CCc1nnc(NC(=O)c2cc(C)nc3ccccc23)s1`: the cell number change came to 23.7%. In addition, the half-maximal activity concentration (AC50) under setting [2] is 29.1 µM [rising, single point].

As for `CCOc1ccc(/C=N/NC(=O)c2ccccc2O)cc1CN1CC2CC(C1)c1cccc(=O)n1C2` (stereo not given), the cell number change was -27.8%. Besides, the AC50 under setting [2] is 29.1 µM [falling, single point].

With `Cc1ccc(N(CC(=O)NCC2CCCO2)C(=O)CCC(=O)Nc2cc(C)on2)cc1` (stereo not given), the cell number change amounted to 21.7%. Under setting [2], the AC50 was 0.00461 µM [rising, full curve, poor fit].

As for `Cc1cccc(-c2nnnn2-c2cccc(C)c2)c1`, the cell number change is 52.4%. For the same compound, the AC50 under setting [1] was 14.6 µM [rising, partial curve, poor fit].

Consider `COC(=O)C1C2C=CC3(CN(CC4CCCO4)C(=O)C13)O2` (stereo not given), for which the cell number change is -123%. The AC50 under setting [1] was 29.1 µM [falling, single point].

Consider `Oc1ccc(Br)cc1-c1n[nH]c(=S)n1Cc1ccccc1`, for which the cell number change is -36%. Further, the AC50 under setting [1] is 14.6 µM [falling, single point].

Take `CN1C(=O)C(C)(C)c2cc(S(=O)(=O)N3CCCC(C(=O)Nc4ccc(Cl)cc4)C3)ccc21` (stereo not given): the cell number change came out at 7.78%. In addition, under setting [2], the AC50 is 29.1 µM [falling, single point].

Regarding `Cc1ccc(NC(=O)CN(C)C(=O)CSc2nc3ccccc3c(=O)n2CCO)cc1`, the AC50 under setting [1] is 2.59 µM [rising, single point].

Turning to `COc1ccccc1C(=O)NCCC(=O)Nc1ccc(OC(F)(F)F)cc1`, the cell number change was -4.76%. Moreover, under setting [2], the AC50 is 6.51 µM [falling, single point].

As to `CCOc1cc(/C=N/NC(=O)c2ccc(O)cc2)ccc1Oc1nc(Cl)ncc1F`, the cell number change was found to be 2.38%. Also, the AC50 under setting [2] was 6.51 µM [falling, single point].

Consider `CC(=O)Nc1ccc(S(=O)(=O)N2CC3(C)CC2CC(C)(C)C3)cc1` (stereo not given), for which the AC50 under setting [1] was 6.51 µM [falling, single point] and the AC50 under setting [2] was 0.58 µM [falling, single point].

For the compound `O=C(CSC1=NNC(c2ccccn2)S1)Nc1ccccc1` (stereo not given), the cell number change stood at 8.79%. Moreover, the AC50 under setting [1] was 2.31 µM [rising, single point]. Moreover, the AC50 under setting [2] is 2.06 µM [rising, partial curve, poor fit].

Consider `c1ccc(CNc2ccc3c(c2)ncn3C2CCCCC2)nc1`, for which the concentration at half-maximal activity (AC50) under setting [1] was 2.31 µM [rising, partial curve] and the AC50 under setting [2] is 2.06 µM [rising, partial curve].

Turning to `CC1CN(S(=O)(=O)c2cccc(-c3cn4ccccc4n3)c2)CC(C)O1` (stereo not given), the cell number change was -19.9%. The AC50 under setting [2] is 29.1 µM [falling, partial curve, poor fit].

For `Cc1cccc(NC(=O)c2ccc(N3C(=O)C4C5C=CC(C6CC56)C4C3=O)cc2)c1` (stereo not given), the cell number change is -31.2%. Under setting [1], the AC50 was 29.1 µM [falling, single point]. Further, the AC50 under setting [2] is 23.1 µM [falling, single point].

Take `CCc1cc(=O)oc2c3c(cc(OCC(=O)N[C@H](C(=O)O)[C@H](C)CC)c12)OC(C)(C)CC3`: the cell number change is -33.3%. Moreover, the AC50 under setting [1] was 0.146 µM [falling, full curve, poor fit]. In addition, the AC50 under setting [2] was 6.51 µM [rising, single point].

On to `CCCCn1c(N)c(N(CC(C)C)C(=O)CCCc2nc3ccccc3s2)c(=O)[nH]c1=O`, for which the cell number change was -34.5%. Further, under setting [1], the AC50 is 10.3 µM [falling, partial curve, poor fit].

Consider `NC(=NC(=O)c1ccc(OCC(F)(F)F)nc1)c1ccccc1`, for which the cell number change was -6.45%. Besides, the AC50 under setting [2] is 14.6 µM [falling, partial curve].

Regarding `COc1ccc(CCNC(=S)Nc2ccc(C)cc2C)cc1`, the cell number change was -3%. Further, the AC50 under setting [2] was 20.6 µM [falling, single point].

In the case of `COc1ccc(OC)c(CNC(=O)CCn2c(=O)c3cccn3c3ccc(F)cc32)c1`, the cell number change came to 14%.

With `COc1ccc(S(=O)(=O)N2CCCCC2)cc1NC(=O)C1CC1C` (stereo not given), the cell number change turned out to be 13.9%. Also, the AC50 under setting [2] was 0.146 µM [falling, full curve, poor fit].

As for `O=S(=O)(c1ccc(Cl)s1)N1CCc2ccccc2C1`, the cell number change worked out at 161%. Besides, under setting [1], the AC50 is 20.6 µM [rising, partial curve]. Further, the AC50 under setting [2] was 29.1 µM [rising, single point].
